Consider one substance from publication PMC10279527, “Structural basis of metabolite transport by the chloroplast outer envelope channel OEP21” (Nature Structural & Molecular Biology, 2023).

Results are given in words; binding and its absence hold for the method and conditions named. Some entries that bind do so weakly or less than the wild type.

The target in the assay is OEP21, endogenous, in chloroplast outer envelope vesicles (garden pea) (UniProt Q9SM57). Put plainly: native gel or EMSA; Blue Native PAGE (7.5-15% gel) of chloroplasts enriched with outer envelope vesicles, solubilised with 1% DDM; second dimension SDS-PAGE; immunoblot against OEP21. A general note: In EMSA bound probe runs differently from free probe, usually more slowly.

Take “OEP21, endogenous, in chloroplast outer envelope vesicles (from UniProt Q9SM57 1-177)”: the binding entry is reported as “binds”.
